Measurements reported in article PMC3217016.
Results are given in words; binding and its absence hold for the method and conditions named. In cells and extracts the contact can be indirect. Some binding calls cover weakened binding; strength is not graded here.

Protein sequences, listed by entry. Tags and fused reporters are not part of them. Residues count along the entry.
UniProt P08631, residues 22-526: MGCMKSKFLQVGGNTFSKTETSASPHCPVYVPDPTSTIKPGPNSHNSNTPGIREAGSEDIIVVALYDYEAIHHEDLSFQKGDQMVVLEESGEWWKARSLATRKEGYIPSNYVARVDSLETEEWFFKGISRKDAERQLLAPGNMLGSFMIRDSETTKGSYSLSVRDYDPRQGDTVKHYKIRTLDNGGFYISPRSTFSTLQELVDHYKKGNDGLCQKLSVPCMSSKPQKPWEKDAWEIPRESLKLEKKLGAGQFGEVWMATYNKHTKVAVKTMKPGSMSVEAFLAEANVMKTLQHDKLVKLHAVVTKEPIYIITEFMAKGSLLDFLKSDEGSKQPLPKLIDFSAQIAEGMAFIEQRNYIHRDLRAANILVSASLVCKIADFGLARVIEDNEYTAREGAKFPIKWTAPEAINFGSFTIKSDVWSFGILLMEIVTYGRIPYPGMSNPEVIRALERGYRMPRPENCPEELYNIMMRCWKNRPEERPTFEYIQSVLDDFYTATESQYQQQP

Target: GST-Nef fusion protein, wild-type NL43 strain Nef (HIV-1 (strain NL43)) (UniProt P03406)
Assay: pull-down; GST-Nef fusion proteins on GST-Bind Resin incubated for 12 h at 4°C with total lysates of 293 cells transfected with Hck plasmids, in Nonidet P-40 lysis buffer (1% Nonidet P-40, 50 mM Tris, 150 mM NaCl) with protease inhibitors; bound Hck detected by Western blotting with anti-Hck (clone 18); only the target purified

wild-type Hck (p56Hck) (from UniProt P08631-2 1-505) (enzyme)
binding: binds
